According to PubChem BioAssay AID651900 (Broad Institute, 2012):
Some of the results follow. These are further read-outs of the screen, such as a control signal, another cell line or another target. No call is given for them.

Assay: cytotoxicity in NIH3T3 fibroblasts, dose response, cytotoxicity control, cell-based, plate reader, cherry-pick, two tests (AID 651900)
Settings: test 2 concentration series, at 26 µM
For `COC(=O)C1C(=O)C=C(Nc2ccc(F)cc2)CC1c1ccc(OC)cc1` (centres undefined), the activity was -1.72%.
With `COc1cc(OC)c(C(=O)Nc2cccnc2)cc1OC` the activity was -3.11%.
`O=C(Nc1cccnc1)c1ccc(N2CCCC2)c([N+](=O)[O-])c1` gave an activity of 0.919%.
Molecule `O=C(Nc1ncc2c(n1)CC(c1cccc(Cl)c1)CC2=O)c1ccco1` (centres undefined) has an activity of 0.5%.
Molecule `COc1ccccc1-c1cc(C(F)(F)F)nc(S(=O)(=O)CCCC(=O)O)n1` has an activity of -8.12%.
Work on `COc1ccc(NC(=O)c2ccc(-n3cncn3)c([N+](=O)[O-])c2)cc1OC` yielded an activity of -1.79%.
In the case of `COc1ccc(Cc2c(-c3ccc(OC)c(OC)c3)nc3c(C)cc(Br)cn23)c(C)c1`, the activity is reported as -2.46%.
`COc1cccc(NC(=O)CCC2CCN(C(=O)c3ccc(C(C)=O)s3)CC2)c1` showed an activity of -0.165%.
In the case of `COC(=O)c1sc(N)c(C(=O)OC)c1CSc1nnc(-c2ccccc2Cl)n1C`, the activity is reported as -7.6%.
In the case of `COC(=O)c1c(C(=O)OC)c(-c2ccccc2)n2c1CS(=O)C2` (centres undefined), the activity is reported as 6.11%.
`Cc1cc(/C=C(/C#N)C(=O)Nc2ccccc2)c(C)n1-c1cccnc1` showed an activity of -0.912%.
For `CC(=O)Nc1ccc2nc(-c3cccnc3)[nH]c2c1`, the activity was 2.57%.
Molecule `COc1cc2cnc(-c3cccnc3)cc2cc1OC` has an activity of -0.533%.
For `COc1ccc(NC(=O)c2cnc(C)cn2)cc1-n1cnnn1`, the activity was 7.84%.
`O=C(O)CSc1ncnc2scc(-c3ccc(Br)cc3)c12` showed an activity of -3.07%.
Molecule `Cc1nc(-c2cccnc2)sc1C(=O)Nc1cccc(C(F)(F)F)c1` has an activity of -2.17%.
Work on `Cc1ccccc1-n1c(SCC(=O)N(C)C2CCS(=O)(=O)C2)nc2ccccc2c1=O` (centres undefined) yielded an activity of -0.245%.
In the case of `O=C(Nc1ccc(N2CCOCC2)c(Cl)c1)c1cccnc1`, the activity is reported as -6.09%.
`O=C(COc1ccc2ccc(=O)oc2c1)N1CCN(c2ccc(F)cc2)CC1` gave an activity of -7.76%.
`Cc1ccc(NC(=O)CSc2nc(=O)n(CCCN3CCOCC3)c3c2CCCC3)cc1F` showed an activity of 6.94%.
Molecule `CCc1c(C(=O)NCCc2ccc(OC)c(OC)c2)[nH]c(C)c1C(C)=O` has an activity of -5.77%.
In the case of `O=C(NCc1ccco1)c1ccc(-c2ccc3nccn3c2)cc1`, the activity is reported as 10.9%.
Work on `Cc1ccc(-n2ncc3c2CC(C)(C)CC3NC(=O)CCc2cccnc2)cc1` (centres undefined) yielded an activity of 7.37%.
Work on `CCN(CC)c1ccc2cc(C(=O)c3cccs3)c(=O)oc2c1` yielded an activity of -9.03%.
In the case of `O=C(CN1C(=O)/C(=C/c2cccc(Br)c2)SC1=S)Nc1cccnc1`, the activity is reported as 0.045%.
For `COc1ccc(NC2c3ccccc3C(=O)N2c2cccnc2)cc1Cl` (centres undefined), the activity was -2.74%.
`Cc1cc(NC(=O)CN(C)S(=O)(=O)c2cnc[nH]2)ccc1Br` showed an activity of -4.06%.
Molecule `COc1ccc(Nc2c(-c3ccc(OC)cc3)nc3cnccn23)cc1` has an activity of 1.26%.
`CN(Cc1ccccc1)C(=O)CCS(=O)(=O)c1ccc2c(c1)NC(=O)CS2` gave an activity of 8.48%.
In the case of `O=C(C[n+]1cc(-c2ccc(Cl)cc2)n2c1CCC2)N1c2ccccc2Sc2ccccc21`, the activity is reported as 0.066%.
Molecule `COc1cc2c(cc1NC(=O)c1cccnc1)CCCC2` has an activity of -8.06%.
Molecule `O=C1CCCc2c1cc(C(=O)NCCCN1CCOCC1)c(=O)n2-c1ccc(Cl)cc1` has an activity of -2.13%.
`COc1ccc(-c2ccc3c(c2)C2CC3CCN2)cc1` (centres undefined) gave an activity of -7.85%.
`Cc1c(NC(=O)c2cc3ccccc3o2)cccc1-n1cnnn1` showed an activity of 3.44%.
